Results published in the supplement of paper PMC8104966.
This is one part of the list. Single values are uncertain here, since repeats match poorly.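 U2OS cells expressing ACE2 were combined with U2OS cells expressing full-length spike, and imaging quantified fusion as the fraction of nuclei displaying both cell types' fluorescent markers. Non-toxic compounds with a fusion z-score under -3, i.e., over three standard deviations below the plate's DMSO wells, are called inhibitory hits.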

The compounds below were run on U2OS ACE2 x SARS-CoV-2 spike co-culture (assay: cell-cell fusion (fraction fused) z-score vs plate DMSO control; higher = more fusion). Conditions: 30 µM; 5 h; toxicity class: non-toxic, passed QC.

| Structure (SMILES) | cell-cell fusion (z-score) |
| --- | --- |
| CC(C)CCCC(C)C1CCC2C3CC[C@H]4C[C@H](O)CC[C@]4(C)C3CC[C@]12C (some centres undefined) | inactive: 2.35 |
| CC1=CC(=O)c2c(O)cccc2C1=O | inactive: 1.78 |
| Cc1cc(-n2c(=O)[nH]c(=O)n(C)c2=O)ccc1Oc1ccc(SC(F)(F)F)cc1 | inactive: 1.86 |
| C1CCN2C[C@@H]3C[C@H](CN4CCCC[C@@H]34)[C@H]2C1.O=S(=O)(O)O | inactive: 0.195 |
| CC(C)(C)NCC(O)COc1cccc2c1C[C@H](O)[C@H](O)C2 (some centres undefined) | inactive: 0.194 |
| Cn1c(=O)c2c(nc(/C=C/c3cccc(Cl)c3)n2C)n(C)c1=O [8-(3-Chlorostyryl)caffeine] | inactive: 2.76 |
| NC(=O)CS(=O)C(c1ccccc1)c1ccccc1 (centres undefined) | inactive: 2.23 |
| CC(=O)Nc1nc(C)c(-c2ccc(Cl)c(S(=O)(=O)NCCO)c2)s1 | inactive: 0.284 |
| CCOC(=O)OC(C)OC1=C(C(=O)Nc2ccccn2)N(C)S(=O)(=O)c2ccccc21 (centres undefined) | inactive: 1.75 |
| CC(=O)[C@H]1CCC2C3CC=C4C[C@@H](OC(=O)CCC(=O)O)CC[C@]4(C)C3CC[C@@]21C (some centres undefined) | inactive: 2.98 |
| O=C(Nc1cccc(C(=O)Nc2ccc(S(=O)(=O)[O-])c3cc(S(=O)(=O)[O-])cc(S(=O)(=O)[O-])c23)c1)Nc1cccc(C(=O)Nc2ccc(S(=O)(=O)[O-])c3cc(S(=O)(=O)[O-])cc(S(=O)(=O)[O-])c23)c1.[Na+].[Na+].[Na+].[Na+].[Na+].[Na+] | inactive: 3.31 |
| CC(=O)Oc1cccc(C)c1 [meta-CRESYL ACETATE] | inactive: 2.77 |
| CC1=NN(c2cccc(C(=O)O)c2)C(=O)/C1=C\c1ccc(-c2ccc(Cl)c(C(=O)O)c2)o1 | inactive: 2.99 |
| COC(=O)N[C@H](C(=O)N1CC2(CC2)C[C@H]1c1ncc(-c2ccc3c(c2)C(F)(F)c2cc(-c4ccc5nc([C@@H]6[C@H]7CC[C@H](C7)N6C(=O)[C@@H](NC(=O)OC)C(C)C)[nH]c5c4)ccc2-3)[nH]1)C(C)C [Ledipasvir] | inactive: 0.332 |
| Cc1cc(=O)n(-c2ccccc2)n1C | inactive: 1.72 |
| CCOCCn1c(N2CCCN(C)CC2)nc2ccccc21 [Emedastine] | inactive: 2.25 |
| CN1CCC[C@H]1c1cccnc1 [Nicotine] | inactive: 0.962 |

An excerpt of these results, bar-delimited.
Structure (SMILES) | cell-cell fusion (z-score)
CC(C)(C)NCC(O)COc1cccc2c1C[C@H](O)[C@H](O)C2 (some centres undefined) | inactive: 0.194
Cn1c(=O)c2c(nc(/C=C/c3cccc(Cl)c3)n2C)n(C)c1=O [8-(3-Chlorostyryl)caffeine] | inactive: 2.76

Additional results:

| Structure (SMILES) | cell-cell fusion (z-score) |
| --- | --- |
| O=C1c2c(O)cc(O)cc2O[C@H](c2ccc(O)c(O)c2)[C@H]1O (racemic) [(±)-Taxifolin] | inactive: -1.07 |
| Cl.NCc1ccc(S(N)(=O)=O)cc1 | inactive: 0.264 |
| CC(C)NC[C@@H](C(=O)N1CCN(c2ncnc3c2[C@H](C)C[C@H]3O)CC1)c1ccc(Cl)cc1 | inactive: -0.861 |
| Cc1ccc([C@@H]2O[C@H](CO)[C@@H](O)[C@H](O)[C@H]2O)cc1Cc1ccc(-c2ccc(F)cc2)s1 [Canagliflozin] | active: -4.3 |
| C=C(C)C1Cc2c(ccc3c(=O)c4c(oc23)COc2cc(OC)c(OC)cc2-4)O1 (centres undefined) | inactive: 1.92 |
| COc1ccc(Cl)cc1C(=O)NCCc1ccc(S(=O)(=O)NC(=O)NC2CCCCC2)cc1 [Glybenclamide] | inactive: -0.386 |
| Cc1ncc([N+](=O)[O-])n1CCO [Metronidazole] | inactive: 2.46 |
| Cc1ccc(-c2nc3ccc(C)cn3c2CC(=O)N(C)C)cc1 | inactive: 3.47 |
| O=C(CCNNC(=O)c1ccncc1)NCc1ccccc1 | inactive: 2.36 |
| O=C(CCNNC(=O)c1ccncc1)NCc1ccccc1 [Nialamide] | inactive: 1.82 |
| Cc1sc2ccccc2c1CC1=NCCN1.O=C(O)C(=O)O [Benazoline oxalate] | inactive: 1.67 |
| C[C@@H]1O[C@@H](O[C@H]2CC[C@]3(C=O)C4CC[C@]5(C)[C@@H](C6=CC(=O)OC6)CC[C@]5(O)C4CC[C@]3(O)C2)[C@H](O)[C@H](O)[C@H]1O (some centres undefined) | inactive: 0.936 |
| COc1cc(C(=S)N2CCOCC2)ccc1O | inactive: 2.46 |
| CC(C[N+](C)(C)C)OC(N)=O.[Cl-] (centres undefined) | inactive: -0.339 |
| CC(C[N+](C)(C)C)OC(N)=O.[Cl-] (centres undefined) [Bethanechol chloride] | inactive: 1.11 |
| O=C(O)c1ccccc1Nc1cccc(OCc2ccc3ccccc3n2)c1 | inactive: 1.98 |
| O.O=C(Nc1cccnc1)N1CCC(Cc2cccc(Oc3ccc(C(F)(F)F)cn3)c2)CC1 | inactive: -0.789 |
